Measured values from paper PMC12560929.

B1: Cytochrome c oxidase subunit 2 (protein, UniProt F8UZB6 1-230)
chain: MAHPSQLGFQDAASPVMEELLHFHDHALMIVFLISTLVLYIIVAMVSTKLTNKYILDSQEIEIIWTVLPAVILILIALPSLRILYLMDEVNDPHLTIKAMGHQWYWSYEYTDYEDLGFDSYMIPTQDLTPGQFRLLEADHRMVIPVESPIRVLVSAEDVLHSWAVPALGVKMDAVPGRLNQTAFIASRPGVFYGQCSEICGANHSFMPIVVEAVPLEHFENWSSLMLEDA
B2: Natural resistance-associated macrophage protein (protein, UniProt E2IFW3 1-559)
chain: MKGRKNEKSKLKDSPQENGVQTNQYSSISPPASPVAQDEPFSTYFEDKVAIPENGNQVFSFRKLWAFTGPGFLMSIAYLDPGNIESDLQSGAKAGFKLLWVLLGATIIGLLLQRLAARLGVVTGMHLAEVCNRQYPIIPRIILWLMVELAIIGSDMQEVIGCAIALNLLSVGRIPLWGGVLITITDTFVFLFLDKYGLRKLEAFFGFLITVMALSFGYEYVLVKPNQGELLKGMFIPYCSDCGPVQMEQAVGIVGAVIMPHNIYLHSALVKSRDVNRANKREVKEANKYFFIESCVALFVSFLINVFVVAVFAQAFYNKTNMEVNALCNATGSPHTDLFPLNNGTLEVDIYKGGVVLGCFFGPAALYIWAIGILAAGQSSTMTGTYSGQFVMEGFLNLRWSRFARVLLTRSIAITPTLLVAIFQDVQHLTGMNDFLNVLQSMQLPFALIPILTFTSLTSIMNDFANGLVWKISGGIVILVVCAINMYFVVIYVTSLNSVLLYVLAALLSVAYLCFVGYLAWHCLVALGVSCLDFGSRMGLSQHTDMYLMNDMDTGSLSG
B3: Interferon-induced GTP-binding protein Mx (protein, UniProt Q6TN15 1-626)
chain: MNTLNQQYEEKVRPCIDLIDSLRSLGVEKDLALPAIAVIGDQSSGKSSVLEALSGVALPRGSGIVTRCPLELKMKRKKEGEEWYGKISYQNHEEEIEDPADVEKKIREAQDEMAGVGVGISDDLISLEIGSPGVPDLTLIDLPGIARVAVKGQPENIGDQIKRLIQTFITKQETISLVVVPCNVDIATTEALNMAQRVDPDGERTLGILTKPDLVDKGTEDTVVEIVHNEVIHLKKGYMIVKCRGQKEITERVSLTEAIERETAFFREHVYFHTLYNEGHATVPKLAEKLTLELVHHIEKSLPRLEEQIEEKLTQTRAELERYGNGPPSDAAEKLIFLIDKVTAFTQDAISLTTGEELKCGDRLNVFSMLRREFGQWNAHLSRSGEIFNKKIEKEVEEYEERYRGRELPGFINYKTFEVMVKEQIKQLEEPAVKRLKDVGDAVRKLLVQLAQSSFTGFPNLVKIAKARIEAIKQEKESTAESTLRTQFKMELLVYSQDRTYSSSLSDRKTEEDEEEDKRKVKTFHKERSILYRMDNHATLQELMLHLKSYYKIASQRLADQIPLVIRYQMLQESASQLHREMMQVLQDKENLEFLLKEDSDIGSKRAALQSRLKRLMKARAYLVEF
B4: 60 kDa heat shock protein, mitochondrial (protein, UniProt A0A3G1HT24 1-576)
chain: MFRLPTVMRQVRPVCRALAPHLTRAYAKDVKFGADARALMLQGVDLLADTVAVTMGPKGRTVIIEQSWGSPKVTKDGVTVAKSIELKDKYKNIGARLVQDVANNTNEEAGDGTTTATVLARAIAKEGFDTISKGANPVEIRRGVMAAVDTIISELKKLSKPVTTPEEIAQVATISANGDVEIGNIISNAMKRVGRKGVITVKDGKTLHDELEIIEGMKFDRGYISPYFINTAKGQKCEFQDAYLLLSEKKISSVQSIVPALEIANQHRKPLVIVAEDVDGEALSTLVLNRLKVGLQVVAVKAPGFGDNRKNQLRDMAIATGGTVFGDDAVGLALEDIQAHDFGKVGEVQITKDDTLLLKGGGSPAEVEKRAAEIMEQLESTTSDYEKEKLNERLAKLSDGVAVLKIGGTSDVEVNEKKDRVTDALNATRAAVEEGIVPGGGCALLRCIPALDTIKTVNADQTIGVDIIRRALRIPAMTIAKNAGVEGSLVVEKILQGPPEIGYDAMQGEYVNMVEKGIIDPTKVVRTALLDAAGVASLLSTAEAVVTEIPKEEKEMPGGGMGGMGGMGGMGGGMGF
B5: RNA helicase (DDX41) (protein, UniProt A0A7H1RFY2 1-614)
chain: METDNRPKKRSHGEDERSGSEGTEDDDYVPYIPVKIRKQQIVQKMLRLRGKAVDEEQKDSGEEQRDEDEGLGPRSNVSLLDQHQHLKEKAEARKESAKEKQLKEEEKILESVAEGRALMSVKEMAKGIIYDDPIKTSWKPPRYILNMPGTRHERVRKKFHILVDGDGIPAPIKSFREMKFPPAILKGLKKKGIAHPTPIQIQGIPTVLSGRDMIGIAFTGSGKTLVFTLPITMFALEQEKRLPFFKREGPYGLIICPSRELARQTHSIIEYYCKLLEEEGAPQLRTALCIGGMSVKEQMEVVKHGVHMMVATPGRLMDLLQKKMVSLDICRYLALDEADRMIDMGFEEDIRTIFSYFKGQRQTLLFSATMPKKIQNFAKSALVKPITINVGRAGAASLDVIQEVEYVKEEAKMVYLLECLQKTPPPVLLFAEKKADVDAIHEYLLLKGVEAVAIHGGKDQEERTKAIEAFKEGKKDVLVATDVASKGLDFPAIQHVVNYDMPEEIENYVHRIGRTGRSGKTGIATTFINKGCDESVLMDLKALLVEAKQKVPPVLQVLQTGDETMLDIGGERGCTFCGGLGHRITDCPKLEAMQTKQVTNIGRKDYLAHSSMDF
B6: Nonspecific cytotoxic cell receptor protein 1 (protein, UniProt A0A0K2DRS2 1-233)
chain: MSAAEWKKRCEAEWSLQVCPMPDSLDWKVVCEAKPLGRNLLKNPAPLGLSKDTPPPEPKLSEVPTHGPPRFQPDGDFSGWITSTEVLPYDTSGIPAGAAICALPQYSWFSMEQVVDLKAEGLWDELLDDFQPEIVIQDWYEERQLHQSIYQLHVKLLGADKSTVISEHTVNPTEDLSTYSHTWKEVSHVFSGYGPGVRYVYFLHRLKNKFMMEFYPTLFTGSAVIAKPTKTSS

Biological target: GST-SPX fusion protein (Siniperca chuatsi spexin, neuropeptide Q) (Siniperca chuatsi)
Assay: affinity purification with mass spectrometry; GST pull-down: 500 ug GST-SPX (control: GST alone) on magnetic beads, 2 h at room temperature; S. chuatsi liver total protein extract added, made up to 1 mL with IP dilution buffer, 4 °C for 1 min; eluted at 95 °C; SDS-PAGE, silver staining, bands excised, LC-MS/MS (MaxQuant against UniProt; at least 2 unique peptides per protein); only the target purified

| Binder | binding |
| --- | --- |
| B1 | binds |
| B2 | binds |
| B3 | binds |
| B4 | binds |
| B5 | binds |
| B6 | binds |

These are yes or no findings as the source states them, for the method shown. Binding seen in cells or lysates may run through a third protein. Here binding means that the protein was enriched with, or labelled near, the bait; the list need not be complete.
